Earlier results as cited in patent US20090318371A1 (priority 2006, published 2009).

Settings: long term studies in animals

## CCC[C@@H]1C[C@@H](C(=O)N[C@@H]([C@H]2O[C@H](SC)[C@H](O)[C@@H](O)[C@H]2O)[C@H](C)Cl)N(C)C1 [Clindamycin]
  Carcinogenesis, mutagenesis, teratogenesis effects and effects on fertility: without developing carcinogenesis, mutagenesis, teratogenesis effects nor on fertility
